In PubChem BioAssay AID2685 (National Center for Advancing Translational Sciences (NCATS), 2010):
The other results are listed elsewhere or left out. Further columns of the screen follow, without active or inactive calls. Most of these compounds were active or inconclusive in the main read-out, so they are no random draw. Words in brackets tell the shape of the fitted curve; partial curves, single points and poor fits give uncertain potencies.

Assay: qHTS Assay for Lipid Storage Modulators in Drosophila S3 Cells;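 as to cell number change: cells counted by Cell Tracker Red CMTPX staining in the red channel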
Settings: BODIPY lipid droplet fluorescence, 18-24 h; for cell number change: measured here: cell count max response, cells fed with added oleic acid
In short: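 Drosophila S3 cells got compounds at several concentrations plus oleic acid (400 uM solution). Laser-scanning cytometry with 488 nm excitation read lipid droplets at 500-530 nm and cells at 575-640 nm. Percent activity was relative to 20 uM Triacsin C.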

[1] = measured here: cell number channel AC50, cells fed with added oleic acid
[2] = measured here: lipid fluorescence (Fed channel) AC50, cells fed with added oleic acid

| SMILES | cell number change | AC50 [1] | AC50 [2] |
| --- | --- | --- | --- |
| CC1CCC/C=C/C(=O)c2c(O)cc(O)cc2CC(=O)O1 (configuration not stated) | -62.3% | 32.6 µM [falling, single point] | – |
| COc1ccc(OC)c(Nc2nc(=O)c3cccnc3s2)c1 | -22.3% | – | 16.4 µM [falling, single point] |
| CN(c1ccccc1C(=O)Nc1ccc(S(=O)(=O)N2CCOCC2)cc1)S(=O)(=O)c1ccccc1 | -83.3% | 29.1 µM [falling, partial curve, poor fit] | 0.00461 µM [falling, full curve, poor fit] |
| COC(=O)c1c(-c2cccc(C)c2)csc1N | -27.2% | – | 7.31 µM [rising, partial curve, poor fit] |
| CCCN(CCC)S(=O)(=O)c1ccc(C(=O)Nc2nnc(-c3cc(OC)cc(OC)c3)o2)cc1 | -15.1% | 4.11 µM [rising, partial curve] | – |
| Cc1nc2ccccc2c(=O)n1/N=C1\C(=O)N(C)c2ccccc21 | -9.47% | – | 0.92 µM [falling, full curve] |
| CC1(C)Oc2ccc3ccc(=O)oc3c2/C(=C/N)C1=O | 10.4% | – | 29.1 µM [rising, single point] |
| COc1ccccc1N1CC(C(=O)Nc2ccccc2N2CCCC2)CC1=O (configuration not stated) | -26% | 0.0461 µM [falling, full curve, poor fit] | – |
| CCN(CC)C(=O)c1sc(NC(=O)c2cccnc2)c(C(=O)OC)c1C | -33.3% | 20.6 µM [falling, single point] | 20.6 µM [rising, partial curve] |
| CCN1CCN(CCNC(=O)c2ccc3c(c2)NC(=O)/C(=C\c2ccc(OC)c(OC)c2)S3)CC1 | 3.3% | – | 29.1 µM [falling, single point] |
| Cc1cc(C)c(OCC(=O)OCC(=O)NC2CCCCCCC2)c(C)c1 | – | – | 29.1 µM [falling, single point] |
| Cc1ccccc1-n1nc2c(c1NC(=O)/C=C\c1ccc3c(c1)OCO3)CSC2 | 4.9% | – | 0.0651 µM [rising, full curve] |
| C/C(=N\NC(=O)c1cccc(N/N=C(\C)c2ccco2)c1)c1ccco1 | – | 0.58 µM [rising, full curve, poor fit] | 2.31 µM [rising, partial curve] |
| CCN1CCN(C(=O)C2CCN(S(=O)(=O)c3cc(Cl)ccc3Cl)CC2)CC1 | -16.2% | – | 6.51 µM [falling, single point] |
| COC(=O)c1cc2sc(Cl)cc2n1Cc1nc(-c2ccccc2)oc1C | 5.05% | – | 0.00411 µM [rising, full curve, poor fit] |
| CC(=O)NC(CCS(C)(=O)=O)C(=O)Nc1cccc(C(C)=O)c1 (configuration not stated) | -245% | 23.1 µM [falling, partial curve] | 18.4 µM [falling, partial curve] |
| CCCC(=O)c1ccc(N2CCN(C(=O)c3ccccc3Br)CC2)c(F)c1 | -9.63% | – | – |
| OC(CCCN1CCCCC1)(c1ccccc1)c1ccccc1 | – | – | 0.103 µM [falling, full curve, poor fit] |
| Cc1ccccc1NC(=O)CN(C)S(=O)(=O)c1ccc2c(c1)n(C)c(=O)c(=O)n2C | – | – | 10.3 µM [falling, partial curve] |
| COc1cc(S(=O)(=O)N2CCOCC2)ccc1NC(=O)COC(=O)C12CC3CC(CC(C3)C1)C2 | -173% | 5.17 µM [falling, partial curve] | 5.17 µM [falling, partial curve] |

Structures listed so far that contain nitrogen in an aromatic ring:

| SMILES | cell number change | AC50 [1] | AC50 [2] |
| --- | --- | --- | --- |
| COc1ccc(OC)c(Nc2nc(=O)c3cccnc3s2)c1 | -22.3% | – | 16.4 µM [falling, single point] |
| CCCN(CCC)S(=O)(=O)c1ccc(C(=O)Nc2nnc(-c3cc(OC)cc(OC)c3)o2)cc1 | -15.1% | 4.11 µM [rising, partial curve] | – |
| Cc1nc2ccccc2c(=O)n1/N=C1\C(=O)N(C)c2ccccc21 | -9.47% | – | 0.92 µM [falling, full curve] |
| CCN(CC)C(=O)c1sc(NC(=O)c2cccnc2)c(C(=O)OC)c1C | -33.3% | 20.6 µM [falling, single point] | 20.6 µM [rising, partial curve] |
| Cc1ccccc1-n1nc2c(c1NC(=O)/C=C\c1ccc3c(c1)OCO3)CSC2 | 4.9% | – | 0.0651 µM [rising, full curve] |
| COC(=O)c1cc2sc(Cl)cc2n1Cc1nc(-c2ccccc2)oc1C | 5.05% | – | 0.00411 µM [rising, full curve, poor fit] |
| Cc1ccccc1NC(=O)CN(C)S(=O)(=O)c1ccc2c(c1)n(C)c(=O)c(=O)n2C | – | – | 10.3 µM [falling, partial curve] |

(listing goes on)

| SMILES | cell number change | AC50 [1] | AC50 [2] |
| --- | --- | --- | --- |
| CCN(CC)S(=O)(=O)c1ccc(C(=O)NC(C)(C)C)cc1 | 18.4% | – | 29.1 µM [rising, single point] |
| CC1CCN(C(=O)c2ccc3c(c2NCCO)C(=O)c2ccccc2C3=O)CC1 | -38.2% | 32.6 µM [falling, single point] | – |
| CC(C)(C)N(NS(=O)(=O)c1ccc(F)cc1)c1ccccc1 | -4.26% | 3.26 µM [rising, single point] | – |
| COc1ccccc1CNC(=O)C(=O)NCC1OCCCN1S(=O)(=O)c1cccs1 (configuration not stated) | 24% | – | 20 µM [rising, single point] |
| COc1ccc(CC(=O)NCCS(=O)(=O)N2CCN(c3ccccc3OC)CC2)cc1 | -12.6% | – | 6.51 µM [rising, single point] |
| O=C(CN1C(=O)CSc2ccc(S(=O)(=O)N3CCOCC3)cc21)NCc1ccc(F)cc1 | 4.45% | – | 0.00461 µM [rising, full curve, poor fit] |
| O=C1N=C(N2CCCC2)S/C1=C\c1cccc(Br)c1 | -38.6% | 32.6 µM [falling, partial curve, poor fit] | – |
| COC(=O)c1ccc(COc2ccccc2/C=N/NS(=O)(=O)c2ccc(C)cc2)cc1 | 94.4% | 29.1 µM [rising, single point] | – |
| CCOC(=O)C1=C(Cn2cnc3ccccc32)NC(=O)NC1c1ccc(Cl)cc1 (configuration not stated) | 14.7% | – | – |
| NC(=S)C1COc2ccccc2O1 (configuration not stated) | -34.2% | – | 4.11 µM [falling, full curve] |
| CC(Cc1cccs1)N(Cc1ccc(Cl)cc1)C(=O)c1ccncc1 (configuration not stated) | -24.3% | – | 0.206 µM [falling, full curve] |
| O=C(CCl)N(Cc1ccccc1)c1ccccc1 | 6% | – | 0.146 µM [falling, full curve, poor fit] |
| CCOc1ccc(-c2c(C(=O)N/N=C/c3ccc(C)s3)nnn2-c2nonc2N)cc1 | 7.16% | – | 7.31 µM [falling, partial curve] |
| CCOc1nc2cnccc2n(CC(=O)Nc2c(F)c(F)cc(F)c2F)c1=O | – | – | 6.51 µM [rising, single point] |
| O=C(COC(=O)c1cc(S(=O)(=O)N2CCCCC2)ccc1N1CCOCC1)NC1CCCCC1 | -30.7% | 9.2 µM [falling, partial curve] | 29.1 µM [rising, single point] |
| CC1(C)CN(c2ccccc2)N(C(=O)c2ccc(F)cc2)C1=O | – | – | 29.1 µM [rising, single point] |
| CC1=C(C)C(O)N(Cc2ccccc2)C1=O (configuration not stated) | 0.275% | – | 6.51 µM [rising, single point] |
| COc1ccc(NC(=O)CCNS(=O)(=O)c2ccc3c(c2)CC(C)N3C(C)=O)cc1 (configuration not stated) | -1.98% | – | 29.1 µM [rising, single point] |
| O=S(=O)(Cc1ccccc1Cl)NCCc1ccc(F)cc1 | -41.3% | 9.2 µM [falling, partial curve] | – |
| CCc1noc(C)c1C(=O)Nc1cc(C(F)(F)F)ccc1-n1cncn1 | – | 0.651 µM [rising, single point] | 0.731 µM [rising, single point] |

| SMILES | cell number change | AC50 [1] | AC50 [2] |
| --- | --- | --- | --- |
| Cc1nc2ccccc2n1CC(O)COc1ccc(Br)cc1 (configuration not stated) | -35% | 29.1 µM [falling, single point] | 1.3 µM [falling, partial curve] |
| Cc1ccc(C(=O)Nc2cc3ccccc3oc2=O)cc1 | 14.8% | – | – |
| Cc1ccc2cc(CN(CC3CCCO3)S(=O)(=O)c3c(C)ccc4nsnc34)c(=O)[nH]c2c1 (configuration not stated) | 13.3% | – | 1.46 µM [rising, full curve] |
| CC1(c2ccc3ccccc3c2)NC(=O)N(CC(=O)N2CCCC(C(F)(F)F)C2)C1=O (configuration not stated) | -1.07% | – | – |
| CCCOc1ccc(/C(O)=C2\C(=O)C(=O)N(c3ccccn3)C2c2ccccc2F)cc1C (configuration not stated) | – | 0.164 µM [falling, full curve, poor fit] | 0.58 µM [falling, single point] |
| O=C(Nc1ccc(N2CCOCC2)c(Cl)c1)c1cc(F)c(F)cc1Cl | 17% | – | – |
| CC(C)(C)c1ccc(C(=O)N2CCN(C(=O)C3CCCCC3)CC2)cc1 | -2.37% | – | 0.259 µM [rising, full curve] |
| Cc1cccc(/C(N)=N/OC(=O)c2ccc(F)cc2)c1 | 14% | – | 32.6 µM [rising, single point] |
| COc1ccc(NC(=O)Cn2nnc(C(=O)NCc3ccc(C)cc3)c2N)cc1Cl | 14.9% | – | 16.4 µM [rising, single point] |
| COc1cccc(CNC(=O)CCC2CCCN(C(=O)c3cccc(Cl)c3)C2)c1 (configuration not stated) | -34.8% | 29.1 µM [falling, single point] | – |
| CC(C)(C)NC(=O)NC(=O)COC(=O)Cn1c(C(F)(F)F)nc2ccccc21 | – | – | 23.1 µM [falling, partial curve, poor fit] |
| c1ccc(-c2nnsc2-c2nc3ccccc3[nH]2)cc1 | -63% | 32.6 µM [falling, partial curve, poor fit] | – |
| Cc1cc(C)cc(N2C(=O)N(c3ccccc3C)C3CS(=O)(=O)CC32)c1 (configuration not stated) | 10.6% | – | 6.51 µM [falling, single point] |
| Nc1nc(COc2ccc3ccccc3c2)cs1 | -38.2% | 3.26 µM [falling, full curve] | 2.59 µM [falling, full curve, poor fit] |
| CN1CCN(c2c(F)cc3c(=O)c(C(=O)O)cn4c3c2OCN4C)CC1 | -8.65% | – | – |
| COc1ccc(OCC(=O)N2CCN(C(=O)c3cccc4ccccc34)CC2)cc1 | -12.5% | – | – |
| O=C(Nc1ccccn1)Nc1cccs1 | – | 0.231 µM [rising, partial curve, poor fit] | 11.6 µM [rising, partial curve, poor fit] |
| O=C(NCC1CCCN(Cc2cccc(F)c2)C1)c1cccc2ccccc12 (configuration not stated) | -18.9% | – | 23.1 µM [falling, single point] |
| O=C(NCc1ccccc1)c1cc[n+]([O-])cc1 | 9.93% | – | 6.51 µM [rising, full curve] |

Entries of single compounds from above:
`CC(C)(C)c1ccc(C(=O)N2CCN(C(=O)C3CCCCC3)CC2)cc1` is entered as cell number change: -2.37%; AC50 [2]: 0.259 µM [rising, full curve]
`Cc1cccc(/C(N)=N/OC(=O)c2ccc(F)cc2)c1` is entered as cell number change: 14%; AC50 [2]: 32.6 µM [rising, single point]
